Source: the supplement of paper PMC8728848
This is one part of the list.

How the values were obtained:
Test in all cases: glycan array binding signal (z-score within array); higher = stronger binding
Conditions in all cases: glycan notation: IUPAC condensed, linker removed
[1] = target: Neu5Ac(a2-3)Gal(b1-4)GlcNAc(b1-2)Man(a1-3)[Neu5Ac(a2-3)Gal(b1-4)GlcNAc(b1-2)Man(a1-6)]Man(b1-4)GlcNAc(b1-4)[Fuc(a1-6)]GlcNAc
Outline: (§1)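 Glycan array data came from 3228 arrays in the Consortium for Functional Glycomics database, and only arrays with an available protein sequence were kept. Glycan names were put into IUPAC-condensed notation, and columns mapping to the same glycan were averaged. The binding signal is a within-array Z-score, averaged across arrays of one protein sequence run at different concentrations or buffers and across linkers. A negative Z-score can be read as non-binding.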

[2] = target: Neu5Ac(a2-3)Gal(b1-4)GlcNAc(b1-2)Man(a1-3)[Neu5Ac(a2-6)Gal(b1-4)GlcNAc(b1-2)Man(a1-6)]Man(b1-4)GlcNAc(b1-4)GlcNAc
Outline: as §1

[3] = target: Neu5Ac(a2-3)Gal(b1-4)GlcNAc(b1-2)[Neu5Ac(a2-3)Gal(b1-4)GlcNAc(b1-4)]Man(a1-3)[GlcNAc(b1-4)][Neu5Ac(a2-3)Gal(b1-4)GlcNAc(b1-2)[Neu5Ac(a2-3)Gal(b1-4)GlcNAc(b1-6)]Man(a1-6)]Man(b1-4)GlcNAc(b1-4)GlcNAc
Outline: as §1

[4] = target: Neu5Ac(a2-3)Gal(b1-4)GlcNAc(b1-2)[Neu5Ac(a2-3)Gal(b1-4)GlcNAc(b1-4)]Man(a1-3)[GlcNAc(b1-4)][Neu5Ac(a2-3)Gal(b1-4)GlcNAc(b1-4)Man(a1-6)]Man(b1-4)GlcNAc(b1-4)GlcNAc
Outline: as §1

[5] = target: Neu5Ac(a2-3)Gal(b1-4)GlcNAc(b1-2)[Neu5Ac(a2-3)Gal(b1-4)GlcNAc(b1-6)]Man(a1-6)[Neu5Ac(a2-3)Gal(b1-4)GlcNAc(b1-2)Man(a1-3)][GlcNAc(b1-4)]Man(b1-4)GlcNAc(b1-4)GlcNAc
Outline: as §1

[6] = target: Neu5Ac(a2-3)Gal(b1-4)GlcNAc(b1-3)Gal
Outline: as §1

[7] = target: Neu5Ac(a2-3)Gal(b1-4)GlcNAc(b1-3)Gal(b1-3)GlcNAc
Outline: as §1

[8] = target: Neu5Ac(a2-3)Gal(b1-4)GlcNAc(b1-3)Gal(b1-4)GlcNAc
Outline: as §1

[9] = target: Neu5Ac(a2-3)Gal(b1-4)GlcNAc(b1-3)Gal(b1-4)GlcNAc(b1-2)Man(a1-3)[Neu5Ac(a2-3)Gal(b1-4)GlcNAc(b1-3)Gal(b1-4)GlcNAc(b1-2)Man(a1-6)]Man(b1-4)GlcNAc(b1-4)GlcNAc
Outline: as §1

[10] = target: Neu5Ac(a2-3)Gal(b1-4)GlcNAc(b1-3)Gal(b1-4)GlcNAc(b1-3)Gal(b1-4)GlcNAc
Outline: as §1

[11] = target: Neu5Ac(a2-3)Gal(b1-4)GlcNAc(b1-3)Gal(b1-4)GlcNAc(b1-3)Gal(b1-4)GlcNAc(b1-2)Man(a1-3)[Neu5Ac(a2-3)Gal(b1-4)GlcNAc(b1-3)Gal(b1-4)GlcNAc(b1-3)Gal(b1-4)GlcNAc(b1-2)Man(a1-6)]GalNAc
Outline: as §1

[12] = target: Neu5Ac(a2-3)Gal(b1-4)GlcNAc(b1-3)Gal(b1-4)GlcNAc(b1-3)GalNAc
Outline: as §1

[13] = target: Neu5Ac(a2-3)Gal(b1-4)GlcNAc(b1-3)Gal(b1-4)GlcNAc(b1-3)[Neu5Ac(a2-3)Gal(b1-4)GlcNAc(b1-3)Gal(b1-4)GlcNAc(b1-6)]GalNAc
Outline: as §1

[14] = target: Neu5Ac(a2-3)Gal(b1-4)GlcNAc(b1-3)Gal(b1-4)GlcNAc(b1-6)[Gal(b1-3)]GalNAc
Outline: as §1

[15] = target: Neu5Ac(a2-3)Gal(b1-4)GlcNAc(b1-3)Gal(b1-4)[Fuc(a1-3)]GlcNAc
Outline: as §1

[16] = target: Neu5Ac(a2-3)Gal(b1-4)GlcNAc(b1-3)GalNAc
Outline: as §1

[17] = target: Neu5Ac(a2-3)Gal(b1-4)GlcNAc(b1-3)[Neu5Ac(a2-3)Gal(b1-4)GlcNAc(b1-6)]GalNAc
Outline: as §1

[18] = target: Neu5Ac(a2-3)Gal(b1-4)GlcNAc(b1-6)GalNAc
Outline: as §1

[19] = target: Neu5Ac(a2-3)Gal(b1-4)GlcNAc(b1-6)[Gal(b1-3)]GalNAc
Outline: as §1

[20] = target: Neu5Ac(a2-3)Gal(b1-4)GlcNAc(b1-6)[Neu5Ac(a2-3)Gal(b1-3)]GalNAc
Outline: as §1

[21] = target: Neu5Ac(a2-3)Gal(b1-4)GlcNAc6S
Outline: as §1

[22] = target: Neu5Ac(a2-3)Gal(b1-4)[Fuc(a1-3)]GlcNAc
Outline: as §1

[23] = target: Neu5Ac(a2-3)Gal(b1-4)[Fuc(a1-3)]GlcNAc(b1-2)Man
Outline: as §1

[24] = target: Neu5Ac(a2-3)Gal(b1-4)[Fuc(a1-3)]GlcNAc(b1-3)Gal
Outline: as §1

[25] = target: Neu5Ac(a2-3)Gal(b1-4)[Fuc(a1-3)]GlcNAc(b1-3)Gal(b1-4)GlcNAc
Outline: as §1

[26] = target: Neu5Ac(a2-3)Gal(b1-4)[Fuc(a1-3)]GlcNAc(b1-3)Gal(b1-4)[Fuc(a1-3)]GlcNAc(b1-3)Gal(b1-4)[Fuc(a1-3)]GlcNAc
Outline: as §1

[27] = target: Neu5Ac(a2-3)Gal(b1-4)[Fuc(a1-3)]GlcNAc(b1-3)GalNAc
Outline: as §1

[28] = target: Neu5Ac(a2-3)Gal(b1-4)[Fuc(a1-3)]GlcNAc(b1-6)[Gal(b1-3)]GalNAc
Outline: as §1

[29] = target: Neu5Ac(a2-3)Gal(b1-4)[Fuc(a1-3)]GlcNAc(b1-6)[Neu5Ac(a2-3)Gal(b1-3)]GalNAc
Outline: as §1

[30] = target: Neu5Ac(a2-3)Gal(b1-4)[Fuc(a1-3)]GlcNAc6S
Outline: as §1

[31] = target: Neu5Ac(a2-3)Gal6S(b1-4)GlcNAc
Outline: as §1

[32] = target: Neu5Ac(a2-3)Gal6S(b1-4)[Fuc(a1-3)]GlcNAc
Outline: as §1

[33] = target: Neu5Ac(a2-3)GalNAc
Outline: as §1

[34] = target: Neu5Ac(a2-3)GalNAc(b1-4)GlcNAc
Outline: as §1

[35] = target: Neu5Ac(a2-3)[GalNAc(b1-4)]Gal(b1-4)Glc
Outline: as §1

[36] = target: Neu5Ac(a2-3)[GalNAc(b1-4)]Gal(b1-4)GlcNAc
Outline: as §1

[37] = target: Neu5Ac(a2-3)[GalNAc(b1-4)]Gal(b1-4)GlcNAc(b1-3)GalNAc
Outline: as §1

B1: CRT-1 (Homo sapiens), P27797 (protein)
chain: MLLSVPLLLGLLGLAVAEPAVYFKEQFLDGDGWTSRWIESKHKSDFGKFVLSSGKFYGDEEKDKGLQTSQDARFYALSASFEPFSNKGQTLVVQFTVKHEQNIDCGGGYVKLFPNSLDQTDMHGDSEYNIMFGPDICGPGTKKVHVIFNYKGKNVLINKDIRCKDDEFTHLYTLIVRPDNTYEVKIDNSQVESGSLEDDWDFLPPKKIKDPDASKPEDWDERAKIDDPTDSKPEDWDKPEHIPDPDAKKPEDWDEEMDGEWEPPVIQNPEYKGEWKPRQIDNPDYKGTWIHPEIDNPEYSPDPSIYAYDNFGVLGLDLWQVKSGTIFDNFLITNDEAYAEEFGNETWGVTKAAEKQMKDKQDEEQRLKEEEEDKKRKEEEEAEDKEDDEDKDEDEEDEEDKEEDEEEDVPGQAKDEL
[1]
  glycan array binding signal (z-score): -0.033
[2]
  glycan array binding signal (z-score): 0.276
[3]
  glycan array binding signal (z-score): 0.301
[4]
  glycan array binding signal (z-score): -0.443
[5]
  glycan array binding signal (z-score): 1.45
[6]
  glycan array binding signal (z-score): -0.453
[7]
  glycan array binding signal (z-score): -0.237
[8]
  glycan array binding signal (z-score): 0.447
[9]
  glycan array binding signal (z-score): 0.369
[10]
  glycan array binding signal (z-score): -0.009
[11]
  glycan array binding signal (z-score): 1.2
[12]
  glycan array binding signal (z-score): -0.225
[13]
  glycan array binding signal (z-score): 0.809
[14]
  glycan array binding signal (z-score): -0.474
[15]
  glycan array binding signal (z-score): -0.593
[16]
  glycan array binding signal (z-score): 0.034
[17]
  glycan array binding signal (z-score): 0.871
[18]
  glycan array binding signal (z-score): 0
[19]
  glycan array binding signal (z-score): -0.261
[20]
  glycan array binding signal (z-score): -0.461
[21]
  glycan array binding signal (z-score): -0.433
[22]
  glycan array binding signal (z-score): -0.676
[23]
  glycan array binding signal (z-score): -0.884
[24]
  glycan array binding signal (z-score): 0.063
[25]
  glycan array binding signal (z-score): 0.745
[26]
  glycan array binding signal (z-score): -0.345
[27]
  glycan array binding signal (z-score): 1.69
[28]
  glycan array binding signal (z-score): -0.778
[29]
  glycan array binding signal (z-score): -0.167
[30]
  glycan array binding signal (z-score): -0.117
[31]
  glycan array binding signal (z-score): -0.492
[32]
  glycan array binding signal (z-score): -1
[33]
  glycan array binding signal (z-score): 0.432
[34]
  glycan array binding signal (z-score): 0.366
[35]
  glycan array binding signal (z-score): -0.139
[36]
  glycan array binding signal (z-score): -0.28
[37]
  glycan array binding signal (z-score): -0.233
